From the supplement of paper PMC3741180, “A Novel High Throughput Biochemical Assay to Evaluate the HuR Protein-RNA Complex Formation” (PLoS ONE, 2013)
This is one part of the list. Most values lie within the scatter of the assay; repeated measurements hardly agree.

The chains behind the UniProt entries cited, without tags or fusion partners.
UniProt Q15717, whole entry: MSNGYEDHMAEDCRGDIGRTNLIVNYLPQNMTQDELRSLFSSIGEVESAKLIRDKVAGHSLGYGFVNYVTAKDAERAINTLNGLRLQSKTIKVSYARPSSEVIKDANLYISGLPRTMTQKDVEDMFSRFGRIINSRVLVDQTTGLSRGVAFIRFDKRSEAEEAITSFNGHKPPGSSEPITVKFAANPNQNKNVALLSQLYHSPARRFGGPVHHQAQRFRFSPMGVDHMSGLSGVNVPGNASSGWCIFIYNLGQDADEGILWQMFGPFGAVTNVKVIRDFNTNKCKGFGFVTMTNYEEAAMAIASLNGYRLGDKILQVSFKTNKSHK

target: HuR (ELAVL1) - TNFalpha ARE RNA complex (UniProt Q15717); test: AlphaScreen HuR-RNA complex signal Z-score relative to positive (Bi-TNF, DMSO) controls (Z-score (SD units of positive control)); higher = more complex signal; conditions: screen stage: primary screen; compound concentration: 25 nM

Row | SMILES | AlphaScreen HuR-RNA complex signal Z-score
1 | CCC(N)C(O)c1ccc(O)c(O)c1 (stereo not given) | 1.5
2 | Oc1cc(Cl)ccc1Oc1ccc(Cl)cc1Cl | 2.39
3 | O=C1CCCN1CC#CCN1CCCC1 | 3.36
4 | COc1ccc(Cc2nccc3cc(OC)c(OC)cc23)cc1OC | 2.72
5 | CCC1(CC)C(=O)C=CNC1=O | 2.86
6 | O=C(NC(=O)c1c(F)cccc1F)Nc1cc(Cl)c(OC(F)(F)C(F)C(F)(F)F)cc1Cl (stereo not given) | 2.6
7 | COc1cc2c(cc1OC)[C@H](C)NCC2 | 2.05
8 | COc1cc2c(cc1OC)[C@@]13CCN4CC5=CCO[C@H]6CC(=O)N2[C@H]1[C@H]6[C@H]5C[C@H]43 | -0.445
9 | COC(=O)C1=CCCN(C)C1 | 0.475
10 | C=C(C)[C@H]1Cc2c(ccc3c2O[C@@H]2COc4cc(OC)c(OC)cc4[C@@H]2C3=O)O1 | 2.07
11 | CCC1(c2ccc(N)cc2)CCC(=O)NC1=O (stereo not given) | 0.32
12 | C[C@@H](N)[C@@H](O)c1ccccc1 | 1.35
13 | NCCc1ccc(O)cc1 | -1.58
14 | CN(C)C(=O)Oc1cc(OC(=O)N(C)C)cc(C(O)CNC(C)(C)C)c1 (stereo not given) | 2.33
15 | CCn1cc(C(=O)O)c(=O)c2cc3c(cc21)OCO3 | 1.97
16 | C[C@]12CC[C@H](O)C[C@@H]1CC[C@@H]1[C@@H]2CC[C@]2(C)C(=O)CC[C@@H]12 | 1.46
17 | C[N+]1(C)[C@@H]2C[C@@H](OC(=O)[C@H](CO)c3ccccc3)C[C@H]1[C@@H]1O[C@@H]12 | 7.22
18 | CO[C@H]1C[C@H](O[C@H]2CC[C@]3(C=O)[C@H]4CC[C@]5(C)[C@@H](C6=CC(=O)OC6)CC[C@]5(O)[C@@H]4CC[C@]3(O)C2)O[C@H](C)[C@H]1O | -4.93
19 | CC1(C)C2C[C@@H](O)[C@]3(C)C(CC[C@@]4(C)[C@H](c5ccoc5)OC(=O)[C@H]5O[C@]543)[C@@]2(C)[C@@H](O)C[C@H]1O (stereo not given in full) | 2.66
20 | C[C@@H]1O[C@@H](O[C@H]2C[C@@H](O)[C@]3(CO)[C@H]4[C@H](O)C[C@]5(C)[C@@H](C6=CC(=O)OC6)CC[C@]5(O)[C@@H]4CC[C@]3(O)C2)[C@H](O)[C@H](O)[C@H]1O | 0.858
21 | COc1ccc2c3c([nH]c2c1)C(C)=NCC3 | 1.26
22 | c1cncc(C2=NCCC2)c1 | 1.06
23 | Cc1nccc2c1[nH]c1ccccc12 | 2.02
24 | C[C@]12C=CC(=O)C=C1CC[C@@H]1[C@@H]2CC[C@]2(C)C(=O)CC[C@@H]12 | 1.1
25 | CCN1C[C@]2(OC(=O)c3ccccc3NC(C)=O)CC[C@H](OC)[C@@]34[C@@H]2C[C@@H]([C@@H]13)[C@@]1(O)C[C@H](OC)[C@H]2C[C@@H]4[C@]1(O)[C@H]2OC | 1.74
26 | CC(=O)CC1CCCCN1 (stereo not given) | 1.68
27 | CCN1C[C@]2(COC)[C@H](O)C[C@H](OC)[C@@]34[C@@H]5C[C@@]6(O)[C@H](OC(=O)c7ccccc7)[C@@H]5[C@@](OC(C)=O)([C@@H]([C@H](OC)[C@H]23)[C@@H]14)[C@@H](O)[C@@H]6OC | -0.312

Row | SMILES | AlphaScreen HuR-RNA complex signal Z-score
28 | CC[C@@]1(O)C[C@H](O[C@H]2C[C@H](N(C)C)[C@H](O)[C@H](C)O2)c2c(cc3c(c2O)C(=O)c2c(O)ccc(O)c2C3=O)[C@H]1C(=O)OC | 1.13
29 | O=[N+]([O-])c1cc([As](=O)(O)O)ccc1O | 41.9
30 | CC(=O)C1CCC2C3CCC4C[C@H](O)CCC4(C)C3C[C@H](O)C12C (stereo partly drawn) [DIHYDROXY (3alpha,12alpha)PREGNAN-20-ONE] | 1.27
31 | CC(C)CCCC1(C)C=Cc2c(O)c3c(c(CCC(C)C)c2O1)OC12C(CC4CC1C(C)(C)OC2(CCC(C)C(=O)O)C4O)C3=O (stereo not given) | -0.698
32 | O=P1(NCCCl)OCCCN1CCCl (stereo not given) | 1.01
33 | C=C(C)[C@@H]1[C@H]2OC(=O)[C@@H]1[C@]1(O)C[C@H]3O[C@]34C(=O)O[C@H]2[C@]14C | 1.92
34 | Oc1ccc(Cl)cc1 | 5.31
35 | CC(C)c1c(CN(C)C(C)Cc2ccccc2)n(C)n(-c2ccccc2)c1=O (stereo not given) | 0.407
36 | COS(C)(=O)=O | 0.986
37 | CCCCN(CC)c1c([N+](=O)[O-])cc(C(F)(F)F)cc1[N+](=O)[O-] | 1.97
38 | CC(=O)OC1CCC23C(=O)OC45CCC(C6=CC(=O)OC6)C4(C)CCC2C5CCC3(O)C1 (stereo not given) | 1.53
39 | NC(=O)CN1CCCC1=O | 1.4
40 | C[C@@H](CO)NC(=O)[C@@H]1C=C2c3cccc4[nH]cc(c34)C[C@H]2N(C)C1 | -2.83
41 | CN1CCN(C(=O)OC2c3nccnc3C(=O)N2c2ccc(Cl)cn2)CC1 (stereo not given) | 0.77
42 | NCCc1c[nH]c2ccccc12 | 1.44
43 | C[C@]12CC[C@H](O)C[C@H]1CC[C@@H]1[C@@H]2C[C@@H](O)[C@]2(C)[C@@H](C3=CC(=O)OC3)CC[C@]12O | 2.01
44 | NC(=O)C[S+]([O-])C(c1ccccc1)c1ccccc1 (stereo not given) | 0.267
45 | ClC1=C(Cl)C2(Cl)C3C4C=CC(C4)C3C1(Cl)C2(Cl)Cl (stereo not given) | 2.68
46 | COC(=O)COc1cc(Cl)c(Cl)cc1Cl | 0.699
47 | CC(=O)OCC1=C(C(=O)O)N2C(=O)[C@@H](NC(=O)CCC[C@@H](N)C(=O)O)[C@H]2SC1 | 1.42
48 | COc1c2c(cc3c1OCO3)CC[N+](C)=C2 | 0.554
49 | Cc1cccc(C)c1NC1=NCCCS1 | 1.06
50 | CC(C)(C)C(=O)C(Oc1ccc(Cl)cc1)n1cncn1 (stereo not given) | -0.066
51 | CC[C@H]1CN2CCc3cc(OC)c(OC)cc3[C@@H]2C[C@@H]1C[C@H]1NCCc2cc(OC)c(OC)cc21 | -3.54
52 | CNC(C)C(O)c1ccccc1 (stereo not given) | 4.66
53 | COc1cc([C@@H]2c3cc4c(cc3[C@H](O)[C@H]3COC(=O)[C@H]23)OCO4)cc(OC)c1OC | -1.25
54 | Cc1ccc(O)cc1.Cc1cccc(O)c1.Cc1ccccc1O | -1.01

Row | SMILES | AlphaScreen HuR-RNA complex signal Z-score
55 | C[C@@H]1CC[C@H]2[C@@H](C)C(=O)O[C@@H]3O[C@@]4(C)CC[C@@H]1[C@]32OO4 | 1.77
56 | CC[C@H]1[C@@H]2C[C@H]3[C@@H]4N(C)c5ccccc5[C@]45C[C@@H]([C@@H]2[C@H]5O)N3[C@@H]1O | 0.549
57 | COc1ccc(C[C@H]2NC[C@H](O)[C@H]2OC(C)=O)cc1 | 1.27
58 | CC1(C)N([O-])[N+](=O)C1(C)Br (stereo not given) | 1.81
59 | COc1ccc2c(c1)[nH]c1c(C)nccc12 | 1.09
60 | Oc1c(Cl)c(Cl)c(Cl)c(Cl)c1Cl | 2.78
61 | O=C1c2ccccc2C(=O)c2ccccc21 | 2.85
62 | NCCc1c[nH]c2ccc(O)cc12 | 0.649
63 | CNC(C)[C@H](O)c1ccccc1 (stereo not given in full) | 2.54
64 | CCC(COC(=O)c1cc(OC)c(OC)c(OC)c1)(c1ccccc1)N(C)C (stereo not given) | 1.07
65 | COC(=O)C(c1ccccc1)C1CCCCN1 (stereo not given) | 2.09
66 | C[C@H]1C(=O)O[C@@H]2CCN3CC=C(COC(=O)[C@](C)(O)[C@]1(C)O)[C@H]23 | -3.63
67 | CC(C)=CCCC1(C)C=Cc2c(O)c3c(c(CC=C(C)C)c2O1)OC12C(=CC4CC1C(C)(C)OC2(C/C=C(/C)C(=O)O)C4O)C3=O (stereo not given) | 1.62
68 | COC[C@]12CN(C=O)[C@@H]3[C@@H]4[C@H](OC)[C@H]1[C@@]3([C@@H](OC)C[C@H]2O)[C@@H]1C[C@@]2(O)[C@H](OC(=O)c3ccccc3)[C@@H]1[C@]4(OC(C)=O)[C@@H](O)[C@@H]2OC | 3.34
69 | O=C(O)COc1cc(Cl)c(Cl)cc1Cl | 2.4
70 | CO[C@]12C[C@@H](COC(=O)c3cncc(Br)c3)CN(C)[C@@H]1Cc1cn(C)c3cccc2c13 | 0.652
71 | COc1cc2c(cc1OC)[C@@H]1C(=O)c3ccc4oc(C(C)C)cc4c3O[C@@H]1CO2 | 2.18
72 | O=C(O)CCC1NCC2CC1CN1CCCCC21 (stereo not given) | 2
73 | C[N+]12CCC(CC1)C(OC(=O)C(O)(c1ccccc1)c1ccccc1)C2 (stereo not given) | -6.23
74 | O=C1CCC[C@@H]2[C@H]3C[C@@H](CN12)[C@@H]1CCCCN1C3.[O-][Cl+3]([O-])([O-])O | 1.17
75 | CC(CC(C(N)=O)(c1ccccc1)c1ccccc1)N(C)C (stereo not given) | 1.63
76 | COc1cc2c(cc1-c1cc3cc4ccoc4cc3oc1=O)OCO2 | 1.59
77 | CN(C)C(=S)SSC(=S)N(C)C | -3.15
78 | CC(C)C[C@H](CN)CC(=O)O | 1.48
79 | O=C1NC(=O)C(=O)C(=O)N1 | 1.88
80 | CC(C)(C)NCC(O)c1ccccc1Cl (stereo not given) | 1.32

Quoted from above (two entries):
Row | SMILES | AlphaScreen HuR-RNA complex signal Z-score
67 | CC(C)=CCCC1(C)C=Cc2c(O)c3c(c(CC=C(C)C)c2O1)OC12C(=CC4CC1C(C)(C)OC2(C/C=C(/C)C(=O)O)C4O)C3=O (stereo not given) | 1.62
68 | COC[C@]12CN(C=O)[C@@H]3[C@@H]4[C@H](OC)[C@H]1[C@@]3([C@@H](OC)C[C@H]2O)[C@@H]1C[C@@]2(O)[C@H](OC(=O)c3ccccc3)[C@@H]1[C@]4(OC(C)=O)[C@@H](O)[C@@H]2OC | 3.34
